The exact form of at least one protein or probe is not confirmed. A negative result means that nothing was seen under these conditions. At least one verdict was read from the data and is not stated in words by the source.
Test system: RORβ (retinoic acid-related orphan receptor beta)
Test: EMSA
Conditions: Pierce EMSA kit, 30 min incubation, 6% PAGE, biotin/streptavidin-HRP ECL detection, pH and temperature not stated, recombinant protein, label: 5'-biotin on both strands

| Sequence | binding result (AGGTCA stated essential for binding) | binding result |
| --- | --- | --- |
| GATCACGAGAGATCGAGACCATCCTG (double strand) [HBP1 HRE Mut3] | no binding |  |
| GATCACGAGGTCAAGAGATCGAGACCATCCTG (double strand) [HBP1 upstream HRE WT] |  | binds |
